The source of these data is PubChem BioAssay AID2685 (National Center for Advancing Translational Sciences (NCATS), 2010).

What is called AC50 is the concentration at which the activity in the assay is half-maximal. Lower therefore signals activity at low concentration.

The other results are listed elsewhere or left out. These are further read-outs of the screen, such as a control signal, another cell line or another target. No call is given for them. Most of these compounds were active or inconclusive in the main read-out, so they are no random draw. Potencies come from curve fits of mixed quality, noted in brackets.

A short description of the test: qHTS Assay for Lipid Storage Modulators in Drosophila S3 Cells.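 For cell number change: cells counted by Cell Tracker Red CMTPX staining in the red channel.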 The following applies: BODIPY lipid droplet fluorescence, 18-24 h; for cell number change: measured here: cell count max response, cells fed with added oleic acid. The method in brief: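 Drosophila S3 cells got compounds at several concentrations plus oleic acid (400 uM solution). Laser-scanning cytometry with 488 nm excitation read lipid droplets at 500-530 nm and cells at 575-640 nm. Percent activity was relative to 20 uM Triacsin C.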
(In general: Quantitative high-throughput screening tests each substance at several concentrations.)

Setting [1] is: measured here: lipid fluorescence (Fed channel) AC50, cells fed with added oleic acid.
Where [2] appears, read: measured here: cell number channel AC50, cells fed with added oleic acid.

`O=C(Nc1cccc(C(F)(F)F)c1)C(Sc1ncnc2ccccc12)c1ccccc1` (stereo not drawn): the cell number change was -2.1%. Under setting [1], the AC50 is 0.164 µM [rising, full curve, poor fit].
Consider `CCN1CCN(S(=O)(=O)c2ccc(Cl)c(C(=O)NC3CCC(C)CC3)c2)CC1` (stereo not drawn), for which the cell number change is -11.2%. Moreover, under setting [1], the AC50 is 6.51 µM [rising, single point].
`CCCn1c2c(c(=N)c3c1CCC3)CCC2`: the cell number change is -3.86%. The AC50 under setting [2] was 2.06 µM [rising, partial curve].
Regarding `CCOC(=O)c1c(NC(=O)CN2CCCCC2)sc(CN(C)C)c1-c1ccccc1`, the cell number change is -45.3%. Besides, under setting [1], the AC50 was 2.06 µM [rising, single point].
On to `CCOC(=O)c1cnn(-c2ccccc2)c1NC(=O)c1ccccc1C`, for which the cell number change was -4.78%. Further, the AC50 under setting [1] is 29.1 µM [rising, single point].
In the case of `Cc1cc(C)nc(NC(=O)c2ccc(C)c(C)c2)n1`, the cell number change was found to be 30.9%. Besides, the AC50 under setting [2] was 0.092 µM [rising, full curve, poor fit]. The AC50 under setting [1] was 20.6 µM [rising, single point].
In the case of `COCc1ccc(-c2c(-c3cc(OC)cc(OC)c3)oc(=O)c3cc(OC)c(OC)cc23)cc1`, the cell number change turned out to be 22.7%. Also, the AC50 under setting [2] was 1.16 µM [falling, single point].
As to `O=C(Nc1ccc(S(=O)(=O)Nc2ccccc2F)cc1)N1CCCCC1`, the cell number change was -15.3%. Besides, the AC50 under setting [1] is 29.1 µM [rising, single point].
`COc1cc(/C=N/NC(=O)CC2(C)OCCCO2)ccc1OCc1ccccc1`: the cell number change came out at 29.3%. The AC50 under setting [1] is 1.16 µM [falling, single point].
In the case of `CN1N=C(C(=O)N2CCCC(Nc3ccc(F)c(F)c3)C2)CCC1=O` (stereo not drawn), the cell number change is 8.8%. For the same compound, the AC50 under setting [1] was 2.31 µM [rising, full curve].
`CC1(C)CC(NC(=O)C23CCC(C)(C(=O)C2=O)C3(C)C)CC(C)(C)N1` (stereo not drawn): the cell number change stood at 7.2%.
For `O=C(Cc1csc(-c2ccccc2)n1)NCc1cccs1`, the AC50 under setting [2] is 0.58 µM [rising, single point] and the AC50 under setting [1] was 0.58 µM [rising, single point].
Turning to `COc1ccc(S(=O)(=O)N2CCC(C(=O)N3CCCC3)CC2)cc1C`, the cell number change came out at 5.04%. Also, the AC50 under setting [1] was 6.51 µM [rising, single point].
`O=[N+]([O-])c1ccc(-c2nc(NCc3ccccc3)c3ccccc3n2)cc1`: the cell number change was -38.8%. Besides, the AC50 under setting [2] was 2.91 µM [falling, full curve]. Besides, the half-maximal activity concentration (AC50) under setting [1] is 4.11 µM [falling, full curve].
Turning to `CCCCOC(=O)c1ccc(NC(=O)COC(=O)CSc2nc(C)cc(C)n2)cc1`, the cell number change came to 10.9%. In addition, the AC50 under setting [1] is 18.4 µM [rising, single point].
For `CCCn1c(N2CCOCC2)nc2c1c(=O)[nH]c(=O)n2C`, the cell number change amounted to 49.3%. The AC50 under setting [2] was 29.1 µM [rising, single point].
For the compound `CC(C)(C)c1ccc(OCCC(=O)Nc2cccc(S(=O)(=O)N3CCCCC3)c2)cc1`, the cell number change was found to be 19.6%. Further, under setting [1], the AC50 is 3.26 µM [falling, single point].
With `CCOc1ccccc1C(=O)OCC(=O)Nc1nnc(-c2ccccc2)o1`, the cell number change is -50%. Also, under setting [2], the AC50 is 5.17 µM [falling, partial curve]. Further, the AC50 under setting [1] is 1.46 µM [rising, partial curve].
Regarding `Cc1cc[n+](CC(=O)c2ccccc2)c2ccccc12`, the cell number change was -20.8%. Moreover, the AC50 under setting [1] is 20.6 µM [falling, single point].
Take `CCn1c(=NC(=O)CS(=O)(=O)c2ccc(C)cc2)sc2cccc(OC)c21`: the cell number change was -32.3%. Besides, the AC50 under setting [1] is 1.84 µM [rising, partial curve].
On to `O=C(Cc1ccccc1)NNc1c2ccccc2nc2ccccc12`, for which the cell number change was found to be 0.0874%.
In the case of `CN(C)C(CNC(=O)c1cccc(C#N)c1)c1ccco1` (stereo not drawn), the cell number change is -17.8%. Moreover, the AC50 under setting [2] is 0.058 µM [falling, full curve].
Regarding `Cc1ccc(Nc2nc3c(c(=O)[nH]2)CCCC3)cc1`, the cell number change was -16.9%. Moreover, under setting [1], the AC50 is 23.1 µM [falling, single point].
Consider `CC(=O)Nc1ccc(N/C=C/C(=O)c2ccc(C)o2)cc1`, for which the cell number change is 32%. Besides, the AC50 under setting [2] is 1.03 µM [rising, full curve]. Also, the AC50 under setting [1] was 1.16 µM [rising, single point].
Consider `COc1ccccc1Nc1ccc([N+](=O)[O-])cc1N`, for which the cell number change is -25.9%. For the same compound, the AC50 under setting [1] was 14.6 µM [falling, partial curve].
On to `CCC(C)(C)NC(=O)C(OC(=O)c1ccco1)c1ccc(OC)cc1` (stereo not drawn), for which the cell number change is -7.97%.
In the case of `CC(C)CCNc1c(-c2cccs2)nc2ccccn12`, the cell number change is -24.4%. Moreover, the AC50 under setting [1] is 18.4 µM [falling, single point].
On to `O=C(c1ccco1)N1CCc2[nH]nc(-c3ccccc3)c2C1`, for which the cell number change was -17.3%. The AC50 under setting [1] was 13 µM [falling, partial curve].
On to `O=C(CC1SC(N2CCCC2)=NC1=O)Nc1ccc(C(=O)Nc2ccccc2)cc1` (stereo not drawn), for which the cell number change was -19.9%. Besides, under setting [2], the AC50 was 0.517 µM [falling, full curve, poor fit]. Also, the AC50 under setting [1] was 0.731 µM [falling, full curve, poor fit].
As to `CCCN(C(=O)c1cccs1)c1c(N)n(Cc2ccccc2)c(=O)[nH]c1=O`, the cell number change was -5.26%. Also, the AC50 under setting [1] was 6.51 µM [falling, single point].
Take `C=CCOC(=O)C1=C[C@@H](c2ccccc2)[C@H](CCCO)[C@@H](OCC)O1`: the cell number change is 3.72%. Besides, the AC50 under setting [1] is 4.61 µM [falling, partial curve].
As for `Cc1cc(SCCC(=O)O)nc2ccccc12`, the cell number change was 1.69%. Moreover, the AC50 under setting [1] is 2.91 µM [rising, single point].
As for `CCc1nc(SCC(=O)N2CCCC2)c2ccccc2n1`, the cell number change was found to be 32.5%. In addition, the AC50 under setting [2] is 5.17 µM [rising, partial curve].
Regarding `CCCOc1ccc(N2C(=O)CC(N3CCN(c4ccc([N+](=O)[O-])cc4)CC3)C2=O)cc1` (stereo not drawn), under setting [1], the concentration at half-maximal activity (AC50) is 4.61 µM [falling, partial curve].
For `COc1ccc2c(c1OC)C(=O)N1N=C(c3ccc(-c4ccccc4)cc3)CC21` (stereo not drawn), the AC50 was 0.103 µM [rising, full curve, poor fit] under setting [2] and 6.51 µM [rising, partial curve, poor fit] under setting [1].
In the case of `COc1ccc(CSC(=N)N)cc1[N+](=O)[O-]`, the cell number change is -40.9%. The AC50 under setting [2] is 29.1 µM [falling, single point]. For the same compound, the AC50 under setting [1] is 4.61 µM [falling, partial curve].
Turning to `CC(=O)n1nc(-c2cccnc2)nc1NCc1cccs1`, the cell number change was determined as 137%. Moreover, under setting [2], the AC50 was 20.6 µM [rising, partial curve].
For `C=CCn1c(C)cc(C(=O)COc2ccc(S(=O)(=O)N3CCCC3)cc2[N+](=O)[O-])c1C`, the cell number change was -0.167%. Moreover, the AC50 under setting [1] was 6.51 µM [rising, single point].
